One experiment deals with T1, V5-Par6A (wild type) (UniProt Q9NPB6).
T1 sequence: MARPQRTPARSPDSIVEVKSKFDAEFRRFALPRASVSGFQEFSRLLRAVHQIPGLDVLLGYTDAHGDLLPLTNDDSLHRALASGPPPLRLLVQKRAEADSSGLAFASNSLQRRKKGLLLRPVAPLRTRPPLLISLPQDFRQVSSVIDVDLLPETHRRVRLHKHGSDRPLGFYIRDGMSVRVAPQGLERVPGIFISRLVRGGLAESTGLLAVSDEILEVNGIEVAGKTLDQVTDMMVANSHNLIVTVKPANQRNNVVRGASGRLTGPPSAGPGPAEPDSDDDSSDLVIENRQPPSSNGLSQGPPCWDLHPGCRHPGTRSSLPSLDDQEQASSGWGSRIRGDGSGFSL
In words: co-IP; YFP-Tuba captured on agarose beads coupled to GFP-binding protein (GBP) from cleared lysate of transfected HEK293T cells, 1 h at 4°C; 1% Nonidet P-40 substitute, 10% glycerol, 50 mM Tris-HCl pH 7.4, 2.0 mM MgCl2, 200 mM NaCl; V5-Par6A (WT or mutant), HA-Cdc42(G12V) and YFP-Tuba co-expressed.

The chains behind the UniProt entries cited, without tags or fusion partners. Where a name states a change or a piece, a line headed by the entry shows the natural chain unless it says otherwise.
UniProt Q6XZF7: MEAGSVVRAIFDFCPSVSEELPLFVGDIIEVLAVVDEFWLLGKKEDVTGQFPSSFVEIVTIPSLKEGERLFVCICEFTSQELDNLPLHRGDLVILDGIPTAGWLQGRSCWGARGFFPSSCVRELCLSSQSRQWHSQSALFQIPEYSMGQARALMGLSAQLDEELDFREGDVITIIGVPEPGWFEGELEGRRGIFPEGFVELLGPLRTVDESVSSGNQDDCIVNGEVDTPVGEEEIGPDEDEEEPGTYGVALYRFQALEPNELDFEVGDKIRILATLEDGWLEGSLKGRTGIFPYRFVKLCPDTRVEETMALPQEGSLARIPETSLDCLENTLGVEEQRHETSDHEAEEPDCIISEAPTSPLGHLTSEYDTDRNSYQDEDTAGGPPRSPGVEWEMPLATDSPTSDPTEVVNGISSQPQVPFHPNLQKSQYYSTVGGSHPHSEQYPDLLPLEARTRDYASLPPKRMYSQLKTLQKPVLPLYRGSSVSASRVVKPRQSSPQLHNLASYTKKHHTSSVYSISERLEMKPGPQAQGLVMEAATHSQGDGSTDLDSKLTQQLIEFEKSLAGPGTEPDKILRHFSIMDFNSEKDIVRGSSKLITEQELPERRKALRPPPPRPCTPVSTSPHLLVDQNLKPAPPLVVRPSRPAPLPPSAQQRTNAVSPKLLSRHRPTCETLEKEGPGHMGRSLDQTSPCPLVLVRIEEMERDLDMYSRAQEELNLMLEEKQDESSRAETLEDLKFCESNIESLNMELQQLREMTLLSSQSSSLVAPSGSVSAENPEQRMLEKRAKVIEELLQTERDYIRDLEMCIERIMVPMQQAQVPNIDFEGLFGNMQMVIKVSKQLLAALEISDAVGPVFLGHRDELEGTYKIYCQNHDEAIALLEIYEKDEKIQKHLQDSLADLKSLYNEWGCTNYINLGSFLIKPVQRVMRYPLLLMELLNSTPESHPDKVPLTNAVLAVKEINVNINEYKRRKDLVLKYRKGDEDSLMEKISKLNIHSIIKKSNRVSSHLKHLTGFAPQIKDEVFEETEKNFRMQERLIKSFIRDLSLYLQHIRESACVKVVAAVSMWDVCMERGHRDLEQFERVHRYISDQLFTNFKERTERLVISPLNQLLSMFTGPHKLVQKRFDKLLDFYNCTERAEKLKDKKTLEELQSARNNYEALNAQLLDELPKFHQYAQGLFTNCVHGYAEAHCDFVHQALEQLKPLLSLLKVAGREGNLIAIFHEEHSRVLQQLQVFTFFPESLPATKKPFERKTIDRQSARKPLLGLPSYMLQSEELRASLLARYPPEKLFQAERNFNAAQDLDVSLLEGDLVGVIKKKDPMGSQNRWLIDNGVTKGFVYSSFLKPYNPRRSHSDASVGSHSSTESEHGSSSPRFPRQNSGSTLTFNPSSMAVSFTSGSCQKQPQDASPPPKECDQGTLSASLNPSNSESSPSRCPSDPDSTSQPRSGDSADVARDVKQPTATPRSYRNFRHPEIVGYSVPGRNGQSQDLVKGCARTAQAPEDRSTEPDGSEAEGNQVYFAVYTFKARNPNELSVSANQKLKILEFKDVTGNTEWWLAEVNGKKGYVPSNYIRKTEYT
UniProt P60953: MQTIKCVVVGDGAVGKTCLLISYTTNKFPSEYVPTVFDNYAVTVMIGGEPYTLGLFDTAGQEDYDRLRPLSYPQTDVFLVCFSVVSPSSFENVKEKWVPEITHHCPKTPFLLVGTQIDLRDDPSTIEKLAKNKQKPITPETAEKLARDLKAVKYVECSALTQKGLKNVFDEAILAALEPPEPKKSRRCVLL

Another experiment addresses YFP-Tuba (UniProt Q6XZF7). The description is as above.

No constants are given. Whether binding was seen depends on the method and setting. In cells and extracts the contact can be indirect. Some binding calls cover weakened binding; strength is not graded here. For some assays here: Where a sequence is shown, tags or fusion partners need not be part of it.

Take “HA-Cdc42(G12V) (from UniProt P60953 1-191)”: the binding result with V5-Par6A (wild type) and in the experiment with YFP-Tuba was “binds” throughout.

Values taken from article PMC6224091.
